# Data published in US12018026B1, “Pyrido[4,3-e][1,2,3]triazolo[1,5-a]pyrimidine as CK2 inhibitors” (KING FAISAL UNIVERSITY, priority 2024, dated 2024).
# Tests used:
# Type in all cases: cell-based
# PC3 (prostate) = test: In vitro cytotoxic activity MTT assay, PC3; details: Homo sapiens; cells exposed for 96 hours; read-out: Cytotoxicity activity IC50, PC3 (prostate)
# Experimental: (§1) Compounds 1-16 were screened for their in vitro cytotoxic activity utilizing a 3-(4,5-dimethyl-thiazol-2-yl)-2,5-diphenyltetrazolium bromide (MTT) assay against selected cancer human cell lines consisting of PC3 (prostate), HCT116 (colon), A375 (melanoma), H1299 (lung), MIAPaCa-2 (pancreas), HL60 (leukemia), MCF7 (breast), MDA-MB-231 (breast) (T. Mosmann, J. Immunol. Meth., 1983, 65, 55-63). The cells were cultured at 37° C. in RMPI1640 medium supplemented with 10% fetal bovine serum, 50 IU/mL penicillin, and 50 μg/mL streptomycin in a 5% CO2 incubator. All cells were sub-cultured 3 times/week by trypsinisation. Viable cells were seeded and allowed to adhere for 12 hours before a test drug was added in 96-well plates at an initial density of 1.0×10^5 cells/mL. Tumor cell lines were separately exposed to various concentrations of the tested compounds followed by incubation at a temperature of 37° C. during 96 hours inside a medium of fresh RMPI 1640. Cells were subsequently incubated at 37° C. using MTT at 0.5 mg/mL during 4 hours. After removal of supernatant, formazan crystals were dissolved in isopropanol and the optical density was measured at 570 nm. CX-4945 was used as a positive control.
# HCT116 (colon) = test: In vitro cytotoxic activity MTT assay, HCT116; details: Homo sapiens, HCT-116; cells exposed for 96 hours; read-out: Cytotoxicity activity IC50, HCT116 (colon)
# Experimental: as §1
# A375 (melanoma) = test: In vitro cytotoxic activity MTT assay, A375; details: Homo sapiens, A-375; cells exposed for 96 hours; read-out: Cytotoxicity activity IC50, A375 (melanoma)
# Experimental: as §1
# H1299 (lung) = test: In vitro cytotoxic activity MTT assay, H1299; details: Homo sapiens, NCI-H1299; cells exposed for 96 hours; read-out: Cytotoxicity activity IC50, H1299 (lung)
# Experimental: as §1
# MIAPaCa-2 (pancreas) = test: In vitro cytotoxic activity MTT assay, MIAPaCa-2; details: Homo sapiens, MIA PaCa-2; cells exposed for 96 hours; read-out: Cytotoxicity activity IC50, MIAPaCa-2 (pancreas)
# Experimental: as §1
# HL60 (leukemia) = test: In vitro cytotoxic activity MTT assay, HL60; details: Homo sapiens, HL-60; cells exposed for 96 hours; read-out: Cytotoxicity activity IC50, HL60 (leukemia)
# Experimental: as §1
# MCF7 (breast) = test: In vitro cytotoxic activity MTT assay, MCF7; details: Homo sapiens, cells exposed for 96 hours, read-out: Cytotoxicity activity IC50, MCF7 (breast)
# Experimental: as §1
# MDA-MB-231 (breast) = test: In vitro cytotoxic activity MTT assay, MDA-MB-231; details: Homo sapiens, cells exposed for 96 hours, read-out: Cytotoxicity activity IC50, MDA-MB-231 (breast)
# Experimental: as §1
compound,measurement,setting,value
"O=C(O)c1ccc2c(c1)nc(Nc1cccc(Cl)c1)c1ccncc12 [CX-4945, reference compound]",IC50,PC3 (prostate),2000 nM
same,IC50,HCT116 (colon),2300 nM
same,IC50,A375 (melanoma),4.1 µM
same,IC50,H1299 (lung),2300 nM
same,IC50,MIAPaCa-2 (pancreas),1000 nM
same,IC50,HL60 (leukemia),3.7 µM
same,IC50,MCF7 (breast),9.1 µM
same,IC50,MDA-MB-231 (breast),6.2 µM
